According to PubChem BioAssay AID2685 (National Center for Advancing Translational Sciences (NCATS), 2010):
The other results are listed elsewhere or left out. Further columns of the screen follow, without active or inactive calls. The list favours compounds with an active or inconclusive main result. Words in brackets tell the shape of the fitted curve; partial curves, single points and poor fits give uncertain potencies.

Assay: qHTS Assay for Lipid Storage Modulators in Drosophila S3 Cells;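 on cell number change: cells counted by Cell Tracker Red CMTPX staining in the red channel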
Conditions: BODIPY lipid droplet fluorescence, 18-24 h; for cell number change: measured here: cell count max response, cells fed with added oleic acid
Outline: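 Drosophila S3 cells loaded with oleic acid (400 uM, as added) and compounds at several concentrations; lipid droplets imaged by 488-nm laser-scanning cytometry, 500–530 nm intensity and object ratio to cell channel. Percent activity normalized to 20 uM Triacsin C.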

[1] = measured here: lipid fluorescence (Fed channel) AC50, cells fed with added oleic acid
[2] = measured here: cell number channel AC50, cells fed with added oleic acid

SMILES	cell number change	AC50 [1]	AC50 [2]
N/C(=N\OC(=O)COc1ccc(Br)cc1Cl)c1ccccn1	16.5%	–	–
Cc1ccccc1NS(=O)(=O)c1ccc(C(=O)N2CCN(S(=O)(=O)c3ccccc3)CC2)cc1	–	9.2 µM [falling, partial curve, poor fit]	–
COc1cc([N+](=O)[O-])cc(/C=N/NC(=O)c2cc(C)nc3ccccc23)c1O	31.6%	–	–
Cn1ncc(Br)c1C(=O)NC1CCCCCCC1	-19.1%	–	–
CCCC1OC23CCCCC2C(C#N)(C#N)C1(C#N)C(=N)O3 (centres undefined)	92.3%	29.1 µM [rising, single point]	29.1 µM [rising, single point]
COCc1cc(CN2CCCC(C(=O)Nc3ccc(-c4ccco4)cc3)C2)ccc1OC (centres undefined)	26.7%	–	–
Cc1noc(C)c1C(=O)OCC(=O)Nc1ccccc1C(=O)NC(C)c1ccccc1 (centres undefined)	17%	2.31 µM [rising, full curve, poor fit]	–
Cc1c(N=C2SCC(=O)N2c2c(C)n(C)n(-c3ccccc3)c2=O)c(=O)n(-c2ccccc2)n1C	-11.3%	3.26 µM [falling, single point]	6.51 µM [falling, single point]
CC(C)c1ccc(S(=O)(=O)N2CCN(C(=O)Cc3ccsc3)CC2)cc1	-19.3%	–	0.164 µM [falling, full curve, poor fit]
CC(C(=O)Nc1ccc(C#N)cc1)N(C)Cc1cccs1 (centres undefined)	-33.3%	–	0.82 µM [falling, full curve, poor fit]
O=[N+]([O-])c1ccc(N2CCCCC2)nc1N1CCCCC1	19.3%	14.6 µM [rising, partial curve, poor fit]	–
COc1cc(C(=O)NCc2nnc(SCC(=O)NCc3ccccc3)o2)cc(OC)c1OC	6.13%	0.164 µM [falling, full curve, poor fit]	–
Cc1cc(C)cc(NC(=O)CSc2nc(=O)n(CCCN3CCOCC3)c3c2CCCC3)c1	228%	–	20.6 µM [rising, partial curve]
Cc1c(Cl)cccc1NC(=O)CCC(=O)N/N=C/c1ccco1	25.2%	29.1 µM [rising, single point]	0.731 µM [rising, full curve, poor fit]
O=S(=O)(Nc1cccc(CO)c1)c1cccs1	-1.72%	0.116 µM [falling, full curve, poor fit]	–
COc1ccc(NC(=O)CSc2ccccn2)cc1OC	6.77%	23.1 µM [rising, partial curve]	1.46 µM [rising, partial curve]
O=S(=O)(c1ccc(Cl)cc1)N1CCN(Cc2ccc(O)c3ncccc23)CC1	17.5%	–	–
O=C(NNC(=O)C1COc2ccccc2O1)c1cccc([N+](=O)[O-])c1 (centres undefined)	1.7%	4.11 µM [falling, partial curve, poor fit]	–
CCOC(=O)Cc1cn2c(=O)cc(CSCC(=O)Nc3ccc(C)c(C)c3)nc2s1	73.8%	20.6 µM [rising, partial curve]	29.1 µM [rising, single point]
O=C(Cn1nnc(-c2cccc(C(F)(F)F)c2)n1)N1CCCCCC1	-2.74%	6.51 µM [falling, single point]	–

SMILES	cell number change	AC50 [1]	AC50 [2]
CCOC(=O)N1CCC(NC(=O)c2ccc(OC)c(CN3CC(=O)N4CCCC4C3=O)c2)CC1 (centres undefined)	-4.54%	–	0.058 µM [rising, single point]
Cc1onc(-c2ccccc2Cl)c1C(=O)Nc1ccc(-n2nncc2-c2ccco2)cc1	72.2%	–	–
CC(C)CC(=O)Nc1cccc(-c2nc3ccccc3[nH]2)c1	-24.1%	29.1 µM [falling, single point]	–
O=C(/C=C/c1ccccc1)N1CCN(CCN2C(=O)c3cccc4cccc(c34)C2=O)CC1	14.1%	5.8 µM [rising, full curve]	–
COc1cccc(Cn2cnc3c(NS(=O)(=O)c4cc(Cl)ccc4Cl)c(C)c(C)cc32)c1	–	0.058 µM [rising, full curve, poor fit]	0.092 µM [rising, full curve, poor fit]
Cc1ccc(S(=O)(=O)CCC(=O)N(C)C2CCCCC2)cc1	13.4%	2.31 µM [rising, partial curve]	0.651 µM [rising, full curve, poor fit]
Cc1cc(=O)oc(C)c1C(=O)OC(C(=O)c1ccccc1)c1ccccc1 (centres undefined)	30.6%	–	29.1 µM [rising, single point]
CCCCCCn1c(N2CCC(C(N)=O)CC2)nc2c1c(=O)[nH]c(=O)n2C	-13.3%	29.1 µM [rising, single point]	–
Cc1ccccc1-n1c(SCC(=O)N2CCCC2)nnc1-c1ccccn1	4.31%	23.1 µM [rising, single point]	–
Cc1nnc(NC(=O)CSc2nnc(-c3ccco3)n2C(C)C)s1	6.84%	29.1 µM [falling, single point]	–
CC1CCCC(C)N1C(=O)/C=C/c1ccc(S(=O)(=O)N2CCOCC2)cc1 (centres undefined)	28.5%	–	–
COc1ccc(/C=N\NC(=O)c2ccc(-c3ccccc3)cc2)c(OC)c1OC	2.89%	0.731 µM [falling, full curve, poor fit]	–
c1ccc(-c2ccccc2OCCN2CCCCC2)cc1	-16.7%	–	3.26 µM [falling, single point]
COc1ccc(OC)c(-c2csc(N(C)C(=O)c3ccco3)n2)c1	75.2%	–	25.9 µM [rising, single point]
O=C(COC(=O)C1CC(=O)N(Cc2ccco2)C1)Nc1ccccc1[N+](=O)[O-] (centres undefined)	–	6.51 µM [falling, single point]	4.61 µM [rising, single point]
O=C(NOCc1ccccc1)c1ccc([N+](=O)[O-])cc1	-34.1%	1.84 µM [rising, partial curve]	–
O=C(OCC(=O)N1CCOCC1)C(c1ccccc1)c1ccccc1	-77.5%	20.6 µM [falling, partial curve]	29.1 µM [falling, single point]
O=C(N/N=C/c1ccccn1)c1ccc(N/N=C/c2ccccn2)cc1	-12.8%	–	0.291 µM [rising, full curve]
O=C(c1cc(-c2ccccc2)nn1-c1ccccc1)N1CCN(S(=O)(=O)c2c(F)cccc2F)CC1	-8.46%	29.1 µM [rising, single point]	–
CCS(=O)(=O)N1CCCC(C(=O)NC2CCCCC2)C1 (centres undefined)	–	2.06 µM [rising, partial curve, poor fit]	–

Whole records, looked up by structure.
Cc1cc(=O)oc(C)c1C(=O)OC(C(=O)c1ccccc1)c1ccccc1 (centres undefined) is listed as cell number change: 30.6%; AC50 [2]: 29.1 µM [rising, single point]
COc1cc(C(=O)NCc2nnc(SCC(=O)NCc3ccccc3)o2)cc(OC)c1OC is listed as cell number change: 6.13%; AC50 [1]: 0.164 µM [falling, full curve, poor fit]

(list continues)

SMILES	cell number change	AC50 [1]	AC50 [2]
CCCc1ccc(S(=O)(=O)N/N=C(/C)c2ccc3c(c2)OCO3)cc1	–	29.1 µM [rising, single point]	–
O=C1CSC(c2cccc([N+](=O)[O-])c2)N1C1CC2CCC1C2 (centres undefined)	28.8%	–	0.461 µM [rising, full curve, poor fit]
S=C(NC12CC3CC(CC(C3)C1)C2)N1CCOCC1	14.4%	6.51 µM [falling, single point]	–
CCOCCCNC(=O)N1CCOCC1	-36.6%	–	0.184 µM [falling, full curve, poor fit]
CC(NC(=O)CCl)c1ccc(Cl)c(Cl)c1 (centres undefined)	–	18.4 µM [falling, partial curve]	–
Cc1cc(Nc2ccccc2)nc(NCc2ccccc2)n1	–	2.06 µM [falling, full curve, poor fit]	–
Cc1cc2ccccc2c(=O)n1CC(=O)NCC1COc2ccccc2O1 (centres undefined)	39.3%	14.6 µM [rising, partial curve]	8.2 µM [rising, partial curve]
COCC(=O)Nc1cc(Cl)c(OC)cc1OC	-1.08%	29.1 µM [rising, single point]	–
CCOC(=O)CN(C(=O)CSc1nnc(-c2ccc(OC)c(OC)c2)o1)c1ccccc1	-0.209%	–	–
Nc1nc(-c2ccc(C(=O)O)cc2)cs1	-29.2%	–	0.0058 µM [falling, full curve]
CCCCSc1cnn(-c2ccccc2)c(=O)c1SCCCC	-32.4%	29.1 µM [falling, single point]	29.1 µM [falling, single point]
COc1ccc(-n2nc(C(=O)NCC(=O)N3CCCC3)c3ccccc3c2=O)cc1Cl	24.8%	29.1 µM [rising, single point]	–
CC(=O)Oc1ccc(C(=O)[C@H]2[C@H]3C(=O)N(c4ccc(C)cc4)C(=O)[C@H]3[C@@H]3C=CC=NN32)cc1	-13%	–	2.06 µM [rising, partial curve]
O=C(c1ccccc1Cl)N1CCN(Cc2ccc3c(c2)OCO3)CC1	-13.9%	16.4 µM [rising, single point]	–
C/C(=N\Nc1ccc([N+](=O)[O-])cc1[N+](=O)[O-])c1ccc(-n2nncc2C(C)(C)C)cc1	-25.8%	18.4 µM [falling, single point]	–
COc1cccc(CNC(=O)[C@H](C)NC(=O)C2CCN(S(=O)(=O)c3ccccc3)CC2)c1	29.6%	6.51 µM [falling, single point]	–
CCN1C(=O)CCCc2ccccc21	10.9%	1.46 µM [falling, partial curve]	2.06 µM [falling, partial curve]
O=C(COc1ccc([N+](=O)[O-])cc1Cl)N1CCOCC1	8.11%	3.66 µM [rising, single point]	0.231 µM [rising, full curve, poor fit]
